{"source": "the supplement of paper PMC12009310", "note": "Structures can show the parent of a compound that is named as a salt. ± gives the standard deviation of the averaged measurements. The list shows a part of the results. Baselines shift from plate to plate; read single values as rough.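 The cells are a mouse kidney inner medullary collecting duct line, silenced either for the ciliary gene Rpgrip1l or with a non-targeting control siRNA.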"}
{"test_system": "mIMCD3", "experiment": "robust z score of cilia incidence (% cells with single cilium) vs plate controls; higher = more ciliated cells", "details": "10 µM; 48 h; siRNA: siScr"}
{"molecule": "Oc1ccc2c3c1O[C@H]1c4oc5ccccc5c4C[C@@]4(O)[C@@H](C2)N(CC2CC2)CC[C@]314", "note": "[Naltriben mesylate]", "robust z score of cilia incidence": "-2.74 ± 4.4"}
{"molecule": "Oc1ccc2c3c1O[C@H]1c4[nH]c5ccccc5c4C[C@@]4(O)[C@@H](C2)N(CC2CC2)CC[C@]314", "note": "[Naltrindole hydrochloride]", "robust z score of cilia incidence": "1.29 ± 0.36"}
{"molecule": "c1ccc(C2CC2)c(OCC2=NCCN2)c1", "note": "[Cirazoline hydrochloride]", "robust z score of cilia incidence": "2.04 ± 1.2"}
{"molecule": "Cc1cc(SCc2sc(-c3ccc(C(F)(F)F)c(F)c3)nc2C)ccc1OCC(=O)O", "robust z score of cilia incidence": "-15.3 ± 6.4"}
{"molecule": "O=C1Nc2ccccc2C2(CCN(CCc3ccc(C(F)(F)F)cc3)CC2)O1", "robust z score of cilia incidence": "-31.3 ± 13"}
{"molecule": "C[C@H](N)Cc1cnc[nH]1", "note": "[(S)-(+)-a-Methylhistamine dihydrobromide]", "robust z score of cilia incidence": "1.09 ± 0.35"}
{"molecule": "CC(=O)NCCc1c[nH]c2ccccc12", "note": "[N-Acetyltryptamine]", "robust z score of cilia incidence": "1.26 ± 1.7"}
{"molecule": "CC(C)(C)NCC(O)COc1cccc2[nH]c(C#N)cc12", "note": "(configuration not stated) [Cyanopindolol hemifumarate]", "robust z score of cilia incidence": "-0.578 ± 1.8"}
{"molecule": "CC(C)n1cnc2c(C(=O)N[C@H]3CN4CCC3CC4)cc(Cl)cc21", "robust z score of cilia incidence": "-31.7 ± 6.3"}
{"molecule": "C[C@@]12N[C@@H](Cc3ccccc31)c1ccccc12", "note": "[(-)-MK 801 maleate]", "robust z score of cilia incidence": "-4.1 ± 4.3"}
{"molecule": "CN1Cc2ccccc2[C@@H]2c3cccc4[nH]cc(c34)C[C@H]21", "robust z score of cilia incidence": "-16 ± 9.4"}
{"molecule": "Oc1ccc2c3c1O[C@H]1c4[nH]c5c(c4C[C@@]4(O)[C@@H](C2)N(CC2CC2)CC[C@]314)C[C@@]1(O)[C@H]2Cc3ccc(O)c4c3[C@@]1(CCN2CC1CC1)[C@H]5O4", "note": "[nor-Binaltorphimine dihydrochloride]", "robust z score of cilia incidence": "2.17 ± 1.3"}
{"molecule": "CC[C@@]1(O)C(=O)OCc2c1cc1n(c2=O)Cc2cc3ccccc3nc2-1", "note": "[Camptothecin]", "robust z score of cilia incidence": "-49.9 ± 15"}
{"molecule": "CN1c2ccccc2C(NCCCCCCC(=O)O)c2ccc(Cl)cc2S1(=O)=O", "note": "(configuration not stated) [Tianeptine]", "robust z score of cilia incidence": "8.28 ± 21"}
{"molecule": "N=C(N)NN", "note": "[Aminoguanidine hydrochloride]", "robust z score of cilia incidence": "0.467 ± 0.69"}
{"molecule": "Nc1ccncc1", "note": "[4-Aminopyridine]", "robust z score of cilia incidence": "2.25 ± 1.6"}
{"molecule": "CC(C(=O)OC1CC2CCC(C1)N2C)c1ccc(Br)cc1", "note": "(configuration not stated) [PG-9 maleate]", "robust z score of cilia incidence": "-40.3 ± 7.6"}
{"molecule": "COc1ccc2[nH]cc(C3=CCNCC3)c2c1", "robust z score of cilia incidence": "0.252 ± 5.2"}
{"molecule": "O=C1NCN(c2ccccc2)C12CCN(CC1COc3ccccc3O1)CC2", "note": "(configuration not stated) [Spiroxatrine]", "robust z score of cilia incidence": "1.16 ± 1.8"}
{"molecule": "CN(C(=O)Cc1ccc(Cl)c(Cl)c1)[C@H](CN1CCCC1)c1ccccc1", "note": "[ICI-199,441 hydrochloride]", "robust z score of cilia incidence": "-22.5 ± 9.4"}
{"molecule": "O=c1[nH]oc2c1CCNC2", "note": "[THIP hydrochloride]", "robust z score of cilia incidence": "-1.02 ± 1.2"}
{"molecule": "CN(C)c1ccc(/C=C2\\CCCN=C2c2cccnc2)cc1", "note": "[DMAB-anabaseine dihydrochloride]", "robust z score of cilia incidence": "-4.18 ± 1.7"}
{"molecule": "CC(=O)C1=C(O)[C@@H]2[C@H]3c4c[nH]c5cccc(c45)C[C@H]3C(C)(C)N2C1=O", "note": "[Cyclopiazonic Acid]", "robust z score of cilia incidence": "0.701 ± 9.2"}
{"molecule": "c1ccc2c(c1)[I+]c1ccccc1-2", "note": "[Diphenyleneiodonium chloride]", "robust z score of cilia incidence": "-19.5 ± 1.6"}
{"molecule": "C=CCN1C[C@H](C)N([C@H](c2ccc(C(=O)N(CC)CC)cc2)c2cccc(OC)c2)C[C@H]1C", "robust z score of cilia incidence": "-9.6 ± 2.9"}
{"molecule": "CS(=O)(=O)Nc1ccc(Cc2noc(-c3ccc4[nH]cc(CCN)c4c3)n2)cc1", "robust z score of cilia incidence": "1.39 ± 2.3"}
{"molecule": "Cn1cc(C(=O)C(=O)N[C@H]2CN3CCC2CC3)c2ccccc21", "robust z score of cilia incidence": "-29.6 ± 7.8"}
